# Experimental data as given in the supplement of paper PMC8728848.
# The list shows a part of the results.
# Columns and labels:
# Assay in all cases: glycan array binding signal (z-score within array); higher = stronger binding
# Settings in all cases: glycan notation: IUPAC condensed, linker removed
# [1] = molecular target: Neu5Ac(a2-3)Gal(b1-3)GlcNAc(b1-3)Gal(b1-3)GlcNAc
# How it was run: (§1)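 The Consortium for Functional Glycomics database supplied 3228 glycan arrays, of which those lacking an available protein sequence were dropped. The binding signal, a within-array Z-score, was averaged across arrays of the same protein sequence and across linkers. Negative scores can be read as non-binding.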
# [2] = molecular target: Neu5Ac(a2-3)Gal(b1-3)GlcNAc(b1-3)Gal(b1-4)GlcNAc
# How it was run: as §1
# [3] = molecular target: Neu5Ac(a2-3)Gal(b1-3)GlcNAc(b1-3)GalNAc
# How it was run: as §1
# [4] = molecular target: Neu5Ac(a2-3)Gal(b1-3)GlcNAc6S
# How it was run: as §1
# [5] = molecular target: Neu5Ac(a2-3)Gal(b1-3)[Fuc(a1-4)]GlcNAc
# How it was run: as §1
# [6] = molecular target: Neu5Ac(a2-3)Gal(b1-3)[Fuc(a1-4)]GlcNAc(b1-3)Gal(b1-3)[Fuc(a1-4)]GlcNAc
# How it was run: as §1
# [7] = molecular target: Neu5Ac(a2-3)Gal(b1-3)[Fuc(a1-4)]GlcNAc(b1-3)Gal(b1-4)[Fuc(a1-3)]GlcNAc
# How it was run: as §1
# [8] = molecular target: Neu5Ac(a2-3)Gal(b1-3)[Neu5Ac(a2-3)Gal(b1-4)]GlcNAc
# How it was run: as §1
# [9] = molecular target: Neu5Ac(a2-3)Gal(b1-3)[Neu5Ac(a2-6)]GalNAc
# How it was run: as §1
# Neu5Ac(a2-3)Gal(b1-4)Glc = molecular target: Neu5Ac(a2-3)Gal(b1-4)Glc
# How it was run: as §1
# [10] = molecular target: Neu5Ac(a2-3)Gal(b1-4)GlcNAc
# How it was run: as §1
# [11] = molecular target: Neu5Ac(a2-3)Gal(b1-4)GlcNAc(b1-2)Man(a1-3)[GlcNAc(b1-2)Man(b1-4)GlcNAc(b1-2)Man(a1-6)]Man(b1-4)GlcNAc(b1-4)GlcNAc
# How it was run: as §1
# [12] = molecular target: Neu5Ac(a2-3)Gal(b1-4)GlcNAc(b1-2)Man(a1-3)[Neu5Ac(a2-6)Gal(b1-4)GlcNAc(b1-2)Man(a1-6)]Man(b1-4)GlcNAc(b1-4)GlcNAc
# How it was run: as §1
# [13] = molecular target: Neu5Ac(a2-3)Gal(b1-4)GlcNAc(b1-3)Gal(b1-3)GlcNAc
# How it was run: as §1
# [14] = molecular target: Neu5Ac(a2-3)Gal(b1-4)GlcNAc(b1-3)Gal(b1-4)GlcNAc
# How it was run: as §1
# [15] = molecular target: Neu5Ac(a2-3)Gal(b1-4)GlcNAc(b1-3)Gal(b1-4)GlcNAc(b1-3)Gal(b1-4)GlcNAc
# How it was run: as §1
# [16] = molecular target: Neu5Ac(a2-3)Gal(b1-4)GlcNAc(b1-3)Gal(b1-4)[Fuc(a1-3)]GlcNAc
# How it was run: as §1
# [17] = molecular target: Neu5Ac(a2-3)Gal(b1-4)GlcNAc(b1-3)GalNAc
# How it was run: as §1
# [18] = molecular target: Neu5Ac(a2-3)Gal(b1-4)GlcNAc(b1-6)[Gal(b1-3)]GalNAc
# How it was run: as §1
# [19] = molecular target: Neu5Ac(a2-3)Gal(b1-4)GlcNAc(b1-6)[Neu5Ac(a2-3)Gal(b1-3)]GalNAc
# How it was run: as §1
# [20] = molecular target: Neu5Ac(a2-3)Gal(b1-4)GlcNAc6S
# How it was run: as §1
# [21] = molecular target: Neu5Ac(a2-3)Gal(b1-4)[Fuc(a1-3)]GlcNAc
# How it was run: as §1
# [22] = molecular target: Neu5Ac(a2-3)Gal(b1-4)[Fuc(a1-3)]GlcNAc(b1-3)Gal
# How it was run: as §1
# [23] = molecular target: Neu5Ac(a2-3)Gal(b1-4)[Fuc(a1-3)]GlcNAc(b1-3)Gal(b1-4)GlcNAc
# How it was run: as §1
# [24] = molecular target: Neu5Ac(a2-3)Gal(b1-4)[Fuc(a1-3)]GlcNAc(b1-3)Gal(b1-4)[Fuc(a1-3)]GlcNAc(b1-3)Gal(b1-4)[Fuc(a1-3)]GlcNAc
# How it was run: as §1
# [25] = molecular target: Neu5Ac(a2-3)Gal(b1-4)[Fuc(a1-3)]GlcNAc(b1-3)GalNAc
# How it was run: as §1
# [26] = molecular target: Neu5Ac(a2-3)Gal(b1-4)[Fuc(a1-3)]GlcNAc(b1-6)[Gal(b1-3)]GalNAc
# How it was run: as §1
# [27] = molecular target: Neu5Ac(a2-3)Gal(b1-4)[Fuc(a1-3)]GlcNAc(b1-6)[Neu5Ac(a2-3)Gal(b1-3)]GalNAc
# How it was run: as §1
# [28] = molecular target: Neu5Ac(a2-3)Gal(b1-4)[Fuc(a1-3)]GlcNAc6S
# How it was run: as §1
# [29] = molecular target: Neu5Ac(a2-3)Gal6S(b1-4)GlcNAc
# How it was run: as §1
# [30] = molecular target: Neu5Ac(a2-3)Gal6S(b1-4)[Fuc(a1-3)]GlcNAc
# How it was run: as §1
# Neu5Ac(a2-3)GalNAc = molecular target: Neu5Ac(a2-3)GalNAc
# How it was run: as §1
# [31] = molecular target: Neu5Ac(a2-3)GalNAc(b1-4)GlcNAc
# How it was run: as §1
# [32] = molecular target: Neu5Ac(a2-3)[GalNAc(b1-4)]Gal(b1-4)Glc
# How it was run: as §1
# [33] = molecular target: Neu5Ac(a2-3)[GalNAc(b1-4)]Gal(b1-4)GlcNAc
# How it was run: as §1
# [34] = molecular target: Neu5Ac(a2-3)[GalNAc(b1-4)]Gal(b1-4)GlcNAc(b1-3)GalNAc
# How it was run: as §1
# [35] = molecular target: Neu5Ac(a2-3)[Neu5Ac(a2-6)]GalNAc
# How it was run: as §1
# Neu5Ac(a2-6)Gal = molecular target: Neu5Ac(a2-6)Gal
# How it was run: as §1
# Neu5Ac(a2-6)Gal(b1-4)Glc = molecular target: Neu5Ac(a2-6)Gal(b1-4)Glc
# How it was run: as §1
# [36] = molecular target: Neu5Ac(a2-6)Gal(b1-4)GlcNAc
# How it was run: as §1
binder,measurement,setting,value
"LERP (Drosophila melanogaster), B7Z0Q8 (protein) MRCSLQKDCAAPTQENFRQMRFPIVISLLLLLFCSGESVAADAANQLKFSTTECKLKEPIYGSTFDFSGLHSDLAHVVKSMNIGGDQFEFNICGNLSRTCNGESNVAACLKRQGKEYILGRQHELFYNNGNMFLKYKSGAKCDNGTADKPNYQLHVMFSCDYTLDAQPMHVTPYANEVCSFYISYRTPLACLSIPEGLQSNSCRVGDTKSNGTFDLMPLSDSNYHTSNRQGAFFVINVCKPVLYGENSMCPAGSSVCLFDSKATNPKERFINFGNVQTHPVVEKGQLLLRHESPTPCAKNSSANYTSVIYFSCDKFIRNAHPEFAGLGADSCTYQFNFATPLACNDLKPCTAFTSTNELLDLSSLSSKPARTLLKDGKNYTIAVCAHAGAPCQENGGACYEQNSTTISLGNSNSQLRFNQTGSLYLLYEDGAECSTATGMRRWSTKIEFVCANNATKDNGASTAGGSDSLKIIEDSNCQLLIQYQTPLACREPIRCKATTYVDHTNDGLGSSGDELIDLTPLISATDNYEARVELPASMEHLVPKTTKFFLNVCRPLVPKYQLGCAGGSAACMAKVTAAGAPEEERSMGFPLVSLTQRNRTFAELAYLKGDPCPTDNTSELSTHILFNCNMRAGRGQPVLRSVEDCAYRFEWETNVFCPPHECTFSADTCDLVHDELGRRFNFKSAPFTKDGKIEIDYNATKMSVNICGAHRKAMTDYSQALVNIFFTHESPNCGREGTMNVQIRLICSDQTESSSTISSDQQCNLLYVQRTPSICEFLSLGATQQNFESNGSTSSSTSSSSTSTTTSTTTQASPAGKPTKAATSTTTTTVGPDPAATPIGPTASVGTILGAILSVTFCVTCLGLLAFSPARRQRIRRLFRRSNSAVRYSRVQSNEEANLLLEPNGEFTESDDDMLL",glycan array binding signal (z-score),[1],-0.319
same,glycan array binding signal (z-score),[2],-0.135
same,glycan array binding signal (z-score),[3],-1.17
same,glycan array binding signal (z-score),[4],-0.16
same,glycan array binding signal (z-score),[5],-0.364
same,glycan array binding signal (z-score),[6],0.907
same,glycan array binding signal (z-score),[7],0.187
same,glycan array binding signal (z-score),[8],-0.204
same,glycan array binding signal (z-score),[9],0.859
same,glycan array binding signal (z-score),Neu5Ac(a2-3)Gal(b1-4)Glc,-0.727
same,glycan array binding signal (z-score),[10],0.617
same,glycan array binding signal (z-score),[11],0.008
same,glycan array binding signal (z-score),[12],-0.274
same,glycan array binding signal (z-score),[13],-0.699
same,glycan array binding signal (z-score),[14],0.53
same,glycan array binding signal (z-score),[15],-1.11
same,glycan array binding signal (z-score),[16],-0.338
same,glycan array binding signal (z-score),[17],0.38
same,glycan array binding signal (z-score),[18],0.326
same,glycan array binding signal (z-score),[19],-0.813
same,glycan array binding signal (z-score),[20],0.734
same,glycan array binding signal (z-score),[21],-1.2
same,glycan array binding signal (z-score),[22],0.892
same,glycan array binding signal (z-score),[23],0.149
same,glycan array binding signal (z-score),[24],-0.598
same,glycan array binding signal (z-score),[25],0.301
same,glycan array binding signal (z-score),[26],2.71
same,glycan array binding signal (z-score),[27],0.222
same,glycan array binding signal (z-score),[28],-0.72
same,glycan array binding signal (z-score),[29],-1.42
same,glycan array binding signal (z-score),[30],0.319
same,glycan array binding signal (z-score),Neu5Ac(a2-3)GalNAc,0.609
same,glycan array binding signal (z-score),[31],0.544
same,glycan array binding signal (z-score),[32],-0.06
same,glycan array binding signal (z-score),[33],-0.271
same,glycan array binding signal (z-score),[34],-0.344
same,glycan array binding signal (z-score),[35],0.339
same,glycan array binding signal (z-score),Neu5Ac(a2-6)Gal,0.042
same,glycan array binding signal (z-score),Neu5Ac(a2-6)Gal(b1-4)Glc,0.348
same,glycan array binding signal (z-score),[36],-0.434

# Pulled one by one from the entries so far:
binder,measurement,setting,value
"LERP (Drosophila melanogaster), B7Z0Q8 (protein) MRCSLQKDCAAPTQENFRQMRFPIVISLLLLLFCSGESVAADAANQLKFSTTECKLKEPIYGSTFDFSGLHSDLAHVVKSMNIGGDQFEFNICGNLSRTCNGESNVAACLKRQGKEYILGRQHELFYNNGNMFLKYKSGAKCDNGTADKPNYQLHVMFSCDYTLDAQPMHVTPYANEVCSFYISYRTPLACLSIPEGLQSNSCRVGDTKSNGTFDLMPLSDSNYHTSNRQGAFFVINVCKPVLYGENSMCPAGSSVCLFDSKATNPKERFINFGNVQTHPVVEKGQLLLRHESPTPCAKNSSANYTSVIYFSCDKFIRNAHPEFAGLGADSCTYQFNFATPLACNDLKPCTAFTSTNELLDLSSLSSKPARTLLKDGKNYTIAVCAHAGAPCQENGGACYEQNSTTISLGNSNSQLRFNQTGSLYLLYEDGAECSTATGMRRWSTKIEFVCANNATKDNGASTAGGSDSLKIIEDSNCQLLIQYQTPLACREPIRCKATTYVDHTNDGLGSSGDELIDLTPLISATDNYEARVELPASMEHLVPKTTKFFLNVCRPLVPKYQLGCAGGSAACMAKVTAAGAPEEERSMGFPLVSLTQRNRTFAELAYLKGDPCPTDNTSELSTHILFNCNMRAGRGQPVLRSVEDCAYRFEWETNVFCPPHECTFSADTCDLVHDELGRRFNFKSAPFTKDGKIEIDYNATKMSVNICGAHRKAMTDYSQALVNIFFTHESPNCGREGTMNVQIRLICSDQTESSSTISSDQQCNLLYVQRTPSICEFLSLGATQQNFESNGSTSSSTSSSSTSTTTSTTTQASPAGKPTKAATSTTTTTVGPDPAATPIGPTASVGTILGAILSVTFCVTCLGLLAFSPARRQRIRRLFRRSNSAVRYSRVQSNEEANLLLEPNGEFTESDDDMLL",glycan array binding signal (z-score),[11],0.008
same,glycan array binding signal (z-score),[22],0.892
same,glycan array binding signal (z-score),[32],-0.06
